From article PMC10229743

The chains behind the UniProt entries cited, without tags or fusion partners.
UniProt P19474: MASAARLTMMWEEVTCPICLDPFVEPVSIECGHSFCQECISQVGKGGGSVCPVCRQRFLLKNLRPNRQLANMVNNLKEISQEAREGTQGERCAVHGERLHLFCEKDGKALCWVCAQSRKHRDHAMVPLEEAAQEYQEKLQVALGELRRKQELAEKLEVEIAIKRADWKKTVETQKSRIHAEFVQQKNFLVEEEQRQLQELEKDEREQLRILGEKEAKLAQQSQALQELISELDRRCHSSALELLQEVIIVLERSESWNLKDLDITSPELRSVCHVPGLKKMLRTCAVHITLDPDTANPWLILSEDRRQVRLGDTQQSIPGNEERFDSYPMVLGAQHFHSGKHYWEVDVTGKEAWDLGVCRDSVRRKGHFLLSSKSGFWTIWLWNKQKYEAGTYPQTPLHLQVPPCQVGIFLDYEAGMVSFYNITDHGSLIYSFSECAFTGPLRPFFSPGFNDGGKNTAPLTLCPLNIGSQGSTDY
UniProt P35558: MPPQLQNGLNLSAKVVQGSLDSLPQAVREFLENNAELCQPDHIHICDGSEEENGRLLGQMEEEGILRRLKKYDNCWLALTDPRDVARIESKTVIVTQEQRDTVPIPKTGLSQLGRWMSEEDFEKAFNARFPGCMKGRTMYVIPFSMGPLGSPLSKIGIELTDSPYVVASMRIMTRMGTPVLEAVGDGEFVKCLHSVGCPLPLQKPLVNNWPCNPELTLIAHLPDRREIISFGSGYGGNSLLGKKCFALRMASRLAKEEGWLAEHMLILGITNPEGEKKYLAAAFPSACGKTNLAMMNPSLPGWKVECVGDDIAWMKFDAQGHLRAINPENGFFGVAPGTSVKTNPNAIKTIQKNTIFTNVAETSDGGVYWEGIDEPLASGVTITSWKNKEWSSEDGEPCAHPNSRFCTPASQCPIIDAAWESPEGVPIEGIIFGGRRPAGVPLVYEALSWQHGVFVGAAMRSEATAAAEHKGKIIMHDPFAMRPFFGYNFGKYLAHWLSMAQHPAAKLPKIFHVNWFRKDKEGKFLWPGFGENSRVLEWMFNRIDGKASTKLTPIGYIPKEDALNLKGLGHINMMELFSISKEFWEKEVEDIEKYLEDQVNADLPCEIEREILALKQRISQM

Target: tripartite motif-containing protein 21 (TRIM21), expressed from adenovirus (Ad-TRIM21) (UniProt P19474)
Assay: affinity purification with mass spectrometry; TRIM21 co-IP followed by LC-MS/MS from HepG2 cells infected with Ad-TRIM21 or Ad-GFP (empty vector)

“phosphoenolpyruvate carboxykinase-1 (PEPCK1), endogenous in HepG2 (from UniProt P35558 1-622)” was tested, and the binding was “binds”.

No constants are given. Whether binding was seen depends on the method and setting. Binding seen in cells or lysates may run through a third protein. A yes stands for co-enrichment or nearness to the bait. Other partners may have been found.
